Test results published in the supplement of paper PMC11732987, “Enantioselective OTUD7B fragment discovery through chemoproteomics screening and high-throughput optimisation” (Communications Chemistry, 2025).
This is one part of the list. The data scatter; read single values as rough.

Sequences of proteins named here, by UniProt entry; tags and fusion partners are left off. A change or cut given only in a name is not applied to a line headed by its entry. Residues count along the entry.
UniProt A6NKD9: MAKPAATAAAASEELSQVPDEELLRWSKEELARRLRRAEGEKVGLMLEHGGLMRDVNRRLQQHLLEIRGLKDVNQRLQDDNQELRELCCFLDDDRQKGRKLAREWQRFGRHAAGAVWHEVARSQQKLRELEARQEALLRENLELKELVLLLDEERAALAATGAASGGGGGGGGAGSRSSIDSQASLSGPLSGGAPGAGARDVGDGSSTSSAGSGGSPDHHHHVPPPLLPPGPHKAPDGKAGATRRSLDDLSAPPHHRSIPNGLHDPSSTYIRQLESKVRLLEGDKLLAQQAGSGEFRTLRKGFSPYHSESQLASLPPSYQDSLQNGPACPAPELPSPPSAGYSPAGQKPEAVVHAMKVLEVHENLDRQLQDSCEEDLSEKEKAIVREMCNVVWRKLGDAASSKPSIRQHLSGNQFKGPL
UniProt O95067, whole entry, looked up: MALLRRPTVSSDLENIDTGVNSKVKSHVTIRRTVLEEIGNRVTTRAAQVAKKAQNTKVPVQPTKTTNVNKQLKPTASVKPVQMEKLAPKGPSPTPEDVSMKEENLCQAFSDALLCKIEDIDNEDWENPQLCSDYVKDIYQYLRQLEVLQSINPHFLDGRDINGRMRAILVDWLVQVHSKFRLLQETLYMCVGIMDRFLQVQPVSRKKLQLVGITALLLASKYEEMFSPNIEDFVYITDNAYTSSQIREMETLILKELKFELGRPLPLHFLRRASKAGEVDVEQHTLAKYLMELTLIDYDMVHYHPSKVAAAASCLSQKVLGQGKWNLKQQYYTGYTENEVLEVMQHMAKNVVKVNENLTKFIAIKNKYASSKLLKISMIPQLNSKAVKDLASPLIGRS
UniProt P49454: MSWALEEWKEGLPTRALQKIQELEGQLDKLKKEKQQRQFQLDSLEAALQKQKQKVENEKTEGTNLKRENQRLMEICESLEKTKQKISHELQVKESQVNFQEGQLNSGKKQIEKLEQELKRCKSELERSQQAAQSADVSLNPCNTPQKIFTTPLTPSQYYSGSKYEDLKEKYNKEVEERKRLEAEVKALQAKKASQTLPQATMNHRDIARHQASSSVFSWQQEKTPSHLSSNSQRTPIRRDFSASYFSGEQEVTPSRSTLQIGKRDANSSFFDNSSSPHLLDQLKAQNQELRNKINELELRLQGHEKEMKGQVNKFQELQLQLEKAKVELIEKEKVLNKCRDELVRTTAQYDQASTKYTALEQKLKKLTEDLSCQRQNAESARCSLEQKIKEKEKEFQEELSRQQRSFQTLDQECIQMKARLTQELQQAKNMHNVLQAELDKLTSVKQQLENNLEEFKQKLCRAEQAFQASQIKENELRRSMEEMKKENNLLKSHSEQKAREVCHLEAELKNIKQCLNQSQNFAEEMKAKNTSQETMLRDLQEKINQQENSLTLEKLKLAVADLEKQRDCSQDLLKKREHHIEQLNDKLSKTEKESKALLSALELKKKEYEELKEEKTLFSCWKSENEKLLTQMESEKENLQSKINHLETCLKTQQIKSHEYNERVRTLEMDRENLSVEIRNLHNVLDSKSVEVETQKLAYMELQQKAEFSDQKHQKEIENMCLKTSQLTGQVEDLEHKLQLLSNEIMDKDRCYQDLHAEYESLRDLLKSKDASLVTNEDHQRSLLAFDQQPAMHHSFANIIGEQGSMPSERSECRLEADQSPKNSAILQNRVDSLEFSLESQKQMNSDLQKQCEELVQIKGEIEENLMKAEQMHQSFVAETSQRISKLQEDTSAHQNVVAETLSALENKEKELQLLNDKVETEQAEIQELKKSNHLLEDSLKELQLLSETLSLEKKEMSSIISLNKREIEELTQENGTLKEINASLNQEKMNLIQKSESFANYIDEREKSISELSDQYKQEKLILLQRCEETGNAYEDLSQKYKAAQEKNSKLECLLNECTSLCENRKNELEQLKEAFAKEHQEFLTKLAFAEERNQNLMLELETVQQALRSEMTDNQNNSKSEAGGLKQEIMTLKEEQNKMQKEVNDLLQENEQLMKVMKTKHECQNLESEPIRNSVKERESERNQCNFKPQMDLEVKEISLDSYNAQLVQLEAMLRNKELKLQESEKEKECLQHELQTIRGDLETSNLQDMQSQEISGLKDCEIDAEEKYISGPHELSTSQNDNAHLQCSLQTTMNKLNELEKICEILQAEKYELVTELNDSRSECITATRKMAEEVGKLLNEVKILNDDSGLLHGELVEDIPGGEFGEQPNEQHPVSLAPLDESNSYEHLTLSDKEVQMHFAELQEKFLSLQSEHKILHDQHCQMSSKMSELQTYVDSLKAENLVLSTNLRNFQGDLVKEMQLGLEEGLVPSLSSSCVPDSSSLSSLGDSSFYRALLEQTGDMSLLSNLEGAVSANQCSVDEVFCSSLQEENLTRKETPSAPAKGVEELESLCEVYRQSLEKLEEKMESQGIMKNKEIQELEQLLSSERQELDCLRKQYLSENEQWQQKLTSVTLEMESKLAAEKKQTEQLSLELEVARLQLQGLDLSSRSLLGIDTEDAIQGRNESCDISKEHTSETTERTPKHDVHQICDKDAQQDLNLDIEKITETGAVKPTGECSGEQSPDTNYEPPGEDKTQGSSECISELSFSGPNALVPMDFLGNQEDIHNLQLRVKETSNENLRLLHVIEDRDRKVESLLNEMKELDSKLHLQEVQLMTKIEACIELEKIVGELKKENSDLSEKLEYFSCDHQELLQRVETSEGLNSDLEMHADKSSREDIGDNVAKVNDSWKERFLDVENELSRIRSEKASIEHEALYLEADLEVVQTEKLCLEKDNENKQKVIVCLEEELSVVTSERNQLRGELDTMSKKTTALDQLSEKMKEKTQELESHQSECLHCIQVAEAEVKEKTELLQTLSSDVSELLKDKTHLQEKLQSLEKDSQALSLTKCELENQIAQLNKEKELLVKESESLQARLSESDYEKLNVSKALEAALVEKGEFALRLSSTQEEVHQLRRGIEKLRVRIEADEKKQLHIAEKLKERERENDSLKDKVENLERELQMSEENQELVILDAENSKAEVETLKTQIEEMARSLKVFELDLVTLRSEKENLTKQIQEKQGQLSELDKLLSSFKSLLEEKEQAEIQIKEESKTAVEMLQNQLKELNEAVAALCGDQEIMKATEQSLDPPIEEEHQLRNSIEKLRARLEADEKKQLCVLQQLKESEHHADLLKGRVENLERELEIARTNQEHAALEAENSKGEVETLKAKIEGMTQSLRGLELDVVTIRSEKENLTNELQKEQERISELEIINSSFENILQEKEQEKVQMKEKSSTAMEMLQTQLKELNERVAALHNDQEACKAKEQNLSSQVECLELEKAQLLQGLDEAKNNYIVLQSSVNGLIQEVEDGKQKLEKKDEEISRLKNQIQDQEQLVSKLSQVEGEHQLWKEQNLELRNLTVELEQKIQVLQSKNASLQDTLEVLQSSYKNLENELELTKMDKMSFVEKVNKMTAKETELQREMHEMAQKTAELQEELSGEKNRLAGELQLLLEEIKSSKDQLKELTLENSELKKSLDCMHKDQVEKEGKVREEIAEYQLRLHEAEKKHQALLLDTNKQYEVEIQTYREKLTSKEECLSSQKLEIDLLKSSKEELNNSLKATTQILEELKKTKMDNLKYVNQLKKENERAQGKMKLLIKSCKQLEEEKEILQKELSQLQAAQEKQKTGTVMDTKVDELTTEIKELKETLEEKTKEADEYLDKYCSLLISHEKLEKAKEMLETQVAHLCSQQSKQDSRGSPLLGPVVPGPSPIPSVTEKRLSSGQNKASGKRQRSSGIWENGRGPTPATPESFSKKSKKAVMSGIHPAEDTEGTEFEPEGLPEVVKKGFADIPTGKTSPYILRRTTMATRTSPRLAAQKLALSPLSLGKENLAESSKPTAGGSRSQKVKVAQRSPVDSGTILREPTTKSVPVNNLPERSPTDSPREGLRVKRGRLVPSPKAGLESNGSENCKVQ
UniProt P48643, whole entry, looked up: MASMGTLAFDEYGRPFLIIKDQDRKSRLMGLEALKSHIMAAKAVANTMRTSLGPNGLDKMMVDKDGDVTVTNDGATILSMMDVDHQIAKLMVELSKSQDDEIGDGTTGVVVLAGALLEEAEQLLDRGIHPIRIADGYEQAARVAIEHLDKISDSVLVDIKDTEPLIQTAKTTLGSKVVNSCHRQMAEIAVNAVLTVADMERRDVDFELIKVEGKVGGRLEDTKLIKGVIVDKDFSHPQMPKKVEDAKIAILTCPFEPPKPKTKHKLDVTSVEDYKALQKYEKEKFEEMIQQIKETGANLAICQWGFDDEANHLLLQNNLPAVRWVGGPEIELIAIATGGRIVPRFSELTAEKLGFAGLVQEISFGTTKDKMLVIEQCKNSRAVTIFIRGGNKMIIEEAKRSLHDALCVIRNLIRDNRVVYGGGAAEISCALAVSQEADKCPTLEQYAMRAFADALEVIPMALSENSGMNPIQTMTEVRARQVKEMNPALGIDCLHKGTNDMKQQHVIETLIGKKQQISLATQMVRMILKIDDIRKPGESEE
UniProt P48643, 418-439: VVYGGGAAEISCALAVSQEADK
UniProt Q00534, whole entry, looked up: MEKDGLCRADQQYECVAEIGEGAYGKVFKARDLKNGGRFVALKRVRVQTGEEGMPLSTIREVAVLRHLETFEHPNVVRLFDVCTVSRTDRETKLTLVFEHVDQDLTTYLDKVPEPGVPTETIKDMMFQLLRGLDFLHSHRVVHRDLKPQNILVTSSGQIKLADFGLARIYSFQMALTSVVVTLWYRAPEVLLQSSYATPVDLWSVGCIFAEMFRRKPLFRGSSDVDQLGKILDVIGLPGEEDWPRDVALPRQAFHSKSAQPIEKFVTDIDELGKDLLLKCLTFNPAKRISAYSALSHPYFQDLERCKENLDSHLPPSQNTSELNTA
UniProt Q00534, 306-326: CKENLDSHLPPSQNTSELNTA
UniProt Q99832: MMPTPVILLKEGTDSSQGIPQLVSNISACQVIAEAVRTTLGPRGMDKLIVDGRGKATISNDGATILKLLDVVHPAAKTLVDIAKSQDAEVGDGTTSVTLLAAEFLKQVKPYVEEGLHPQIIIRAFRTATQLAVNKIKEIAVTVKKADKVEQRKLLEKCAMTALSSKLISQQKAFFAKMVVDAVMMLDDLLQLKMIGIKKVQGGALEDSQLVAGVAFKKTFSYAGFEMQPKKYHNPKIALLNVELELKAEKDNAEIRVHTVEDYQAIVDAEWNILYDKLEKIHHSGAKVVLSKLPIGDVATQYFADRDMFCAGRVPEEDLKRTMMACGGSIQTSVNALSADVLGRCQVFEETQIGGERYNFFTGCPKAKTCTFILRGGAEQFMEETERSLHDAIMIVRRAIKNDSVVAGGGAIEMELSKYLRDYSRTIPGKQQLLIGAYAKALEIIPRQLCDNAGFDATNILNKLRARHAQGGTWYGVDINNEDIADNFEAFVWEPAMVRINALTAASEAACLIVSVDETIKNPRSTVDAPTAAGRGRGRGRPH
UniProt P51946: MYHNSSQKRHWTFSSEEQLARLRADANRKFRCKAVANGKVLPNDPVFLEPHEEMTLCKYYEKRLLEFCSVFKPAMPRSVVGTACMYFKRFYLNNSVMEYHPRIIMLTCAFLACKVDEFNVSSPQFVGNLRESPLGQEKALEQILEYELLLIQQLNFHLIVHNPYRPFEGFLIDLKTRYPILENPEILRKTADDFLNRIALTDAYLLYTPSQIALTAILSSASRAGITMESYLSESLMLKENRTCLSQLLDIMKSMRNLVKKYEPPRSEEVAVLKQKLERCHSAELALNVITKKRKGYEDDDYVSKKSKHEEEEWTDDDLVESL
UniProt P30307: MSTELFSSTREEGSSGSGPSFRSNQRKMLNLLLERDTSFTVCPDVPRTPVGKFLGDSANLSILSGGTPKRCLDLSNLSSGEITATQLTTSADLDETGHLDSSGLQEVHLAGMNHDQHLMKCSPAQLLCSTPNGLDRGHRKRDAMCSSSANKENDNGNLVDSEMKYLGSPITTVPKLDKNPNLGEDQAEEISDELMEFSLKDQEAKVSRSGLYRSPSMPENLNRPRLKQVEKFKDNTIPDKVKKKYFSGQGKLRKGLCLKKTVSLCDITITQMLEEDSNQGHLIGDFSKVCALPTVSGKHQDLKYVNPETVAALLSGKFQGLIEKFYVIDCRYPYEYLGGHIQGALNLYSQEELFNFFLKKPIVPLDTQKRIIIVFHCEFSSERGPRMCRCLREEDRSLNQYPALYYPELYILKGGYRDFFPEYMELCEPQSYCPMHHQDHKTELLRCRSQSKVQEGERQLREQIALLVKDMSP
UniProt P48509: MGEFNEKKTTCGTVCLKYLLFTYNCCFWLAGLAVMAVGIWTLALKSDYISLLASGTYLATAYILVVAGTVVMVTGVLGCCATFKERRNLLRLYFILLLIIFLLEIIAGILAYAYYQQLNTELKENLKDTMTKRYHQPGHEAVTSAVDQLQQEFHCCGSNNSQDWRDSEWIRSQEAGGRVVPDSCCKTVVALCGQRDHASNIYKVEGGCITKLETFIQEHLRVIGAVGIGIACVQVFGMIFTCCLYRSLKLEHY

Experiments:
[1] = compound: ClCC(=O)N[C@@H]1CCCc2ccccc12; experiment: log2 mean competition ratio of IA-DTB cysteine labelling (DMSO/compound) (log2 ratio); higher = stronger cysteine engagement by compound; conditions: treatment time: 4 h, cell line lysate: HEK293T
Protocol: (§1)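 IA-DTB competitive cysteine chemoproteomics in HEK293T RIPA lysate. Lysates were treated with compound 29 or 30 at 50 or 200 µM for 4 h, then IA-DTB (500 µM, 1 h), trypsin-digested, NeutrAvidin-enriched and analysed by diaPASEF. Competition ratio = intensity DMSO / intensity compound (n=4 treated, n=64 DMSO); binding: mean log2 CR ≥ 1 and p ≤ 0.05 plus QC filters. Target is the cysteine site.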

[2] = compound: ClCC(=O)N[C@H]1CCCc2ccccc12; experiment: as above; conditions: treatment time: 4 h, cell line lysate: HEK293T
Protocol: as §1

Row | Target | log2 mean competition ratio ([1]; 50 µM) | log2 mean competition ratio ([1]; 200 µM) | log2 mean competition ratio ([2]; 50 µM) | log2 mean competition ratio ([2]; 200 µM)
1 | CDK12 C1009 (UniProt Q9NYV4) | 0.181 | -0.174 | 0.188 | -0.227
2 | CCDC85C C373 (UniProt A6NKD9) | -0.352 | 0.205 | -0.181 | 0.101
3 | CCNB2 C314 (UniProt O95067) | 0.1 | 0.0117 | 0.413 | 0.0245
4 | CDC42 C105 | 0.259 | -0.371 | 0.202 | -0.403
5 | CCT4 C221 (UniProt P50991) | -0.178 | -0.0209 | -0.0684 | 0.00185
6 | CEP192 C352 (UniProt Q8TEP8) | -0.0488 | 0.289 | 0.163 | 0.0397
7 | CENPF C621 (UniProt P49454) | 0.551 | 0.0892 | 0.21 | 0.113
8 | CDIN1 C14 | -0.282 | -0.264 | -0.363 | -0.0767
9 | CCT6A C282 (UniProt P40227) | -0.0758 | -0.152 | -0.401 | -0.119
10 | CDC42BPA C912 (UniProt Q5VT25) | -0.31 | -0.28 | 0.178 | -0.0753
11 | CCT5 C253 (UniProt P48643) | -0.0173 | -0.211 | -0.206 | -0.135
12 | CDK6 C83 (UniProt Q00534) | 0.471 | -0.0525 | 0.26 | 0.141
13 | CEP170 C212 (UniProt Q5SW79) | -0.0972 | 0.0951 | 0.0171 | -0.068
14 | CCT2 C395 (UniProt P78371) | 0.0738 | -0.175 | -0.152 | -0.346
15 | CCDC9 C233 | -0.207 | -0.194 | 0.0258 | -0.181
16 | CENPF C2889 (UniProt P49454) | -0.0671 | -0.0327 | -0.214 | -0.0368
17 | CENPE C2219 (UniProt Q02224) | 0.639 | 0.389 | -0.113 | 0.447
18 | CCT5 C407 (UniProt P48643) | -0.141 | -0.128 | -0.0146 | -0.111
19 | CDK5RAP2 C434 (UniProt Q96SN8) | -0.0185 | -0.202 | -0.171 | -0.129

Shown as a markdown table: entries from further up.

| Row | Target | log2 mean competition ratio ([1]; 50 µM) | log2 mean competition ratio ([1]; 200 µM) | log2 mean competition ratio ([2]; 50 µM) | log2 mean competition ratio ([2]; 200 µM) |
| --- | --- | --- | --- | --- | --- |
| 1 | CDK12 C1009 (UniProt Q9NYV4) | 0.181 | -0.174 | 0.188 | -0.227 |
| 4 | CDC42 C105 | 0.259 | -0.371 | 0.202 | -0.403 |
| 10 | CDC42BPA C912 (UniProt Q5VT25) | -0.31 | -0.28 | 0.178 | -0.0753 |
| 12 | CDK6 C83 (UniProt Q00534) | 0.471 | -0.0525 | 0.26 | 0.141 |
| 15 | CCDC9 C233 | -0.207 | -0.194 | 0.0258 | -0.181 |
| 16 | CENPF C2889 (UniProt P49454) | -0.0671 | -0.0327 | -0.214 | -0.0368 |
| 19 | CDK5RAP2 C434 (UniProt Q96SN8) | -0.0185 | -0.202 | -0.171 | -0.129 |

Later entries.

Row | Target | log2 mean competition ratio ([1]; 50 µM) | log2 mean competition ratio ([1]; 200 µM) | log2 mean competition ratio ([2]; 50 µM) | log2 mean competition ratio ([2]; 200 µM)
20 | CCT8 C244 | 0.361 | -0.0377 | 0.557 | 0.0706
21 | CEP192 C1828 (UniProt Q8TEP8) | -0.154 | 0.104 | -0.145 | 0.127
22 | CCT7 C364 (UniProt Q99832) | 0.143 | -0.297 | 0.091 | -0.188
23 | CCNH C244 (UniProt P51946) | 0.00787 | -0.315 | -0.434 | -0.246
24 | CEP250 C110 (UniProt Q9BV73) | 0.159 | -0.0347 | 0.0924 | -0.133
25 | CCDC93 C282 (UniProt Q567U6) | 0.0801 | -0.189 | -0.0782 | 0.0123
26 | CCT7 C450 (UniProt Q99832) | -0.376 | 0.177 | 0.00876 | 0.283
27 | CDCA2 C714 (UniProt Q69YH5) | -0.415 | -0.101 | -0.116 | -0.0324
28 | CDKN2AIP C503 (UniProt Q9NXV6) | -0.134 | 0.166 | -0.315 | 0.211
29 | CDK6 C306 (UniProt Q00534) | 0.0261 | 0.167 | -0.183 | -0.152
30 | CEP290 C383 (UniProt O15078) | 0.0378 | -0.36 | -0.141 | -0.169
31 | CDKAL1 C109 (UniProt Q5VV42) | 0.0543 | -0.175 | -0.101 | 0.113
32 | CCDC144A;CCDC144CP C1116;(C926) | 0.0809 | 0.154 | -0.0294 | 0.14
33 | CDC25C C145 (UniProt P30307) | 0.0469 | -0.0183 | -0.0728 | -0.186
34 | CD151 C192 (UniProt P48509) | 0.277 | 0.107 | 0.663 | 0.22
35 | CCT5 C429 (UniProt P48643) | -0.143 | -0.264 | 0.16 | -0.274
36 | CCT4 C295 (UniProt P50991) | 0.146 | -0.119 | -0.175 | -0.101
37 | CDYL2 C288 | 0.371 | -0.313 | 0.324 | -0.159
